Experimental data published in paper PMC5390981, “Peptide probes derived from pertuzumab by molecular dynamics modeling for HER2 positive tumor imaging” (PLoS Computational Biology, 2017).
No constants are given. Whether binding was seen depends on the method and setting.

By UniProt entry, the sequences of proteins in these tests, tags left out. Residues count along the entry.
UniProt P02768, residues 25-609: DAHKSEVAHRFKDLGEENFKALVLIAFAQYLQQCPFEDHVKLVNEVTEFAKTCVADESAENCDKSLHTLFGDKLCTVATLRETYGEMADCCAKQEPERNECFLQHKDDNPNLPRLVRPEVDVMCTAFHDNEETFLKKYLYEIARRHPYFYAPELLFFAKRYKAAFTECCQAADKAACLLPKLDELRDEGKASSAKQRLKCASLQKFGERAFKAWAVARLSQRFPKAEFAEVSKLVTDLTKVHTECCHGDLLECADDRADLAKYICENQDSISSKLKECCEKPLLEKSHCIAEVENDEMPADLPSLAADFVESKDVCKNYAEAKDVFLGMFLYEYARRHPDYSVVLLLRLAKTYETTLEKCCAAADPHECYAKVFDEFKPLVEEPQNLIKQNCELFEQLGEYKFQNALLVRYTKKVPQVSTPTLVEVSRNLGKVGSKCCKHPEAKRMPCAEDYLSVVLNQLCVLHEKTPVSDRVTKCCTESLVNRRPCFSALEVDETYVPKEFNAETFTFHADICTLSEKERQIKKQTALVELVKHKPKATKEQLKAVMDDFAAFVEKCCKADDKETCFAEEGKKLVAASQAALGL

What was measured:
Experiment in all cases: SPR; SPR imaging (SPRi, PlexArray HT); peptides immobilised through an N-terminal cysteine on a bare gold chip, blocked with 5% nonfat milk; HER2 or HSA in PBST flowed at 0.625 to 20 μg/mL; KD from fitting association-dissociation curves; both purified
[1] = molecular target: T1, peptide 58F63Y with N-terminal cysteine, for SPRi
T1 sequence (peptide): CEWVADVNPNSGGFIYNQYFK

[2] = molecular target: T2, peptide 4665 (pertuzumab fragment Glu46 to Lys65) with N-terminal cysteine, for SPRi
T2 sequence (peptide): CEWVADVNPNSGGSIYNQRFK

[3] = molecular target: T3, peptide 58F (4665 with Ser58 to Phe) with N-terminal cysteine, for SPRi
T3 sequence (peptide): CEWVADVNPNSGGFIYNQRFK

[4] = molecular target: T4, peptide 63Y (4665 with Arg63 to Tyr) with N-terminal cysteine, for SPRi
T4 sequence (peptide): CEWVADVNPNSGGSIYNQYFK

[5] = molecular target: T5, peptide 55V (4665 with Ser55 to Val) with N-terminal cysteine, for SPRi
T5 sequence (peptide): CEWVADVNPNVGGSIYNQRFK

[6] = molecular target: T6, peptide 55V63Y with N-terminal cysteine, for SPRi
T6 sequence (peptide): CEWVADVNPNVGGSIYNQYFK

**Q.** Which results are given for “Human serum albumin (HSA) protein (from UniProt P02768 25-609)”?
**A.** binding [1]: no binding (tested: 0.625 to 20 μg/mL HSA); binding [2]: no binding (tested: 0.625 to 20 μg/mL HSA); binding [3]: no binding (tested: 0.625 to 20 μg/mL HSA); binding [4]: no binding (tested: 0.625 to 20 μg/mL HSA); binding [5]: no binding (tested: 0.625 to 20 μg/mL HSA); binding [6]: no binding (tested: 0.625 to 20 μg/mL HSA)
